Results: PMC5300874
Positions count from the first letter of the chain named. These are yes or no findings as the source states them, for the method shown. In cells and extracts the contact can be indirect. Some binding calls cover weakened binding; strength is not graded here. Where a sequence is shown, tags or fusion partners need not be part of it.

Sequences of proteins named here, by UniProt entry; tags and fusion partners are left off.
UniProt Q8TRB6: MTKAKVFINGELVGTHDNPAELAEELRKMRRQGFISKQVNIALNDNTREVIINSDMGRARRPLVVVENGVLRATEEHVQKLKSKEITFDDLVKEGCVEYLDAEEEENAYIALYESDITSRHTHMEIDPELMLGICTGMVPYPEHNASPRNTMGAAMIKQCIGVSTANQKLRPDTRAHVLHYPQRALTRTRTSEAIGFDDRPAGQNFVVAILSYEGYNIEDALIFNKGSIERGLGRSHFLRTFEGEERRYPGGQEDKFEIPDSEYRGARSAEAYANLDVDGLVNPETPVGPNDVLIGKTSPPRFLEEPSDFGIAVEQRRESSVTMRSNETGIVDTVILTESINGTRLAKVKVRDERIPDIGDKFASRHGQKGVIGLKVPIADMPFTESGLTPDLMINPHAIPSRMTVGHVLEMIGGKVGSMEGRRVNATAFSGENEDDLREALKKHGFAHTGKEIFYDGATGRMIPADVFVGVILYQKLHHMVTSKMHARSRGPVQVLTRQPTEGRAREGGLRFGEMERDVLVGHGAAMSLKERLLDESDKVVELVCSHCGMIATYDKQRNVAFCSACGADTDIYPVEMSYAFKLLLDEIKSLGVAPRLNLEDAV

Key:
[1] = biological target: T1, (His)Rpo3, N-terminally histidine-tagged wild-type Rpo3 expressed in Methanosarcina acetivorans (Methanosarcina acetivorans) (UniProt P0CG28); assay: pull-down; merodiploid M. acetivorans strains (native Rpo3 also present), tetracycline-induced; (His)Rpo3 variant held on Ni2+-agarose from lysate, anaerobic; eluates normalised to 15 ng (His)Rpo3; western blot for Rpo11, Rpo2′, Rpo1″
T1 sequence: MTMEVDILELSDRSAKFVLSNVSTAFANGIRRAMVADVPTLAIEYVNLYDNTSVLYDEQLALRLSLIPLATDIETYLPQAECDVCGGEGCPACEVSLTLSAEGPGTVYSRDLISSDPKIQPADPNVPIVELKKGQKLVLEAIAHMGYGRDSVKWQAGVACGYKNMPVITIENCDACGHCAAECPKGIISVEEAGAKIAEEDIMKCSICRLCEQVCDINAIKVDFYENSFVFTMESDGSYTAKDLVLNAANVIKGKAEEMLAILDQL

[2] = biological target: T1, (His)Rpo3, N-terminally histidine-tagged wild-type Rpo3 expressed in Methanosarcina acetivorans (Methanosarcina acetivorans); assay: pull-down; gene replacement M. acetivorans strains (native rpo3 replaced); (His)Rpo3 variant held on Ni2+-agarose from lysate, anaerobic; eluates normalised to Rpo3; western blot for Rpo11, Rpo2′, Rpo1″
[3] = biological target: T2, (His)Rpo3mFeS2 (Methanosarcina acetivorans) (UniProt P0CG28); assay: as above
T2 sequence: T1 sequence with C173S, C176S, C179S

Measured: binding

Rpo2′ (RpoB′), catalytic subunit of Methanosarcina acetivorans RNA polymerase (from UniProt Q8TRB6 1-604)
binds: all assays above
